Experimental data from PubChem BioAssay AID588590 (National Center for Advancing Translational Sciences (NCATS), 2011).
About 4,000 (1%) of roughly 390,000 compounds were called active. This list was built around the results that the source calls inconclusive (neither active nor inactive); the mix of calls is not that of the screen. The call rests on the fitted dose curve; in most records, active means well fitted inhibition curve with a large enough effect; inconclusive means small, poorly fitted or top-dose-only effect, or another doubt; inactive means no such curve, though single readings can be large or run the other way. Where the call is inconclusive, the potency comes from a doubtful curve fit.

Chains of the proteins cited; added tags and fusions are not shown. Lines headed by an entry give the natural chain unless they say otherwise; changes in a name come on top.
UniProt Q9UNA4: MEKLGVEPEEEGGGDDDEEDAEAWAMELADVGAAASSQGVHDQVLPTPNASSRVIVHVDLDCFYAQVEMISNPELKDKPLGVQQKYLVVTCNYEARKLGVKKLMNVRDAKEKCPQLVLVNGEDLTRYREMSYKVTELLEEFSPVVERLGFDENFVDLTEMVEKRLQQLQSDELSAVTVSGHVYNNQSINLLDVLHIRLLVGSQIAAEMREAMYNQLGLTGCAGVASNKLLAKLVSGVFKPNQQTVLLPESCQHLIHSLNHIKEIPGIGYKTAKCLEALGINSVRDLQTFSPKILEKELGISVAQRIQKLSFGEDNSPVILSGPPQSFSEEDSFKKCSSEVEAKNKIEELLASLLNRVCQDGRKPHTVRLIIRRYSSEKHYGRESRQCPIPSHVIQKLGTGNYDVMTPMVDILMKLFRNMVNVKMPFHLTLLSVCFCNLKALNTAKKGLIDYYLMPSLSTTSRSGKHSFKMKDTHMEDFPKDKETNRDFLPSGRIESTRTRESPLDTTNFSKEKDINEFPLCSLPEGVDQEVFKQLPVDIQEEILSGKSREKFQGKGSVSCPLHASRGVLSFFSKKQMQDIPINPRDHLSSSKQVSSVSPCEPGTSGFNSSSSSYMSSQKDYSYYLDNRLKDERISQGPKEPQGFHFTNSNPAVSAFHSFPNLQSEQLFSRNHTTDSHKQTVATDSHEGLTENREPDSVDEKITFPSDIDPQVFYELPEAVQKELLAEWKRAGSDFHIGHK

Biological target: DNA polymerase iota (Homo sapiens) (UniProt Q9UNA4)
Experiment: qHTS for Inhibitors of Polymerase Iota
Conditions: Pol iota fluorescent replication assay, 10 min; series mostly up to 115 µM
Outline: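 Pol iota at 10 nM preincubated 15 min with compounds at room temperature; reaction started with fluorescent substrate, 50 nM final. Fluorescence read kinetically at 0 and 10 min; buffer-only wells as negative control.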
Potency means the concentration at half of the fitted maximal effect.

Potency, inconclusive:
COc1cc(C(c2nnnn2C2CCCC2)N2CCN(C)CC2)cc(OC)c1OC (stereo not drawn) 3.16 µM [inhibitor, full curve, poor fit], COc1ccc(N2CC(C(=O)Nc3ccc(S(=O)(=O)Nc4nccs4)cc3)CC2=O)c(OC)c1 (stereo not drawn) 50.1 µM [inhibitor, partial curve, poor fit], CCN(C(=O)COC(=O)Cc1coc2cc(C)ccc12)c1c(N)n(Cc2ccccc2)c(=O)[nH]c1=O 79.4 µM [inhibitor, partial curve], O=C(NCCN1C(=O)S/C(=C\c2ccc(Cl)c(Cl)c2)C1=O)c1ccc2c(c1)C(=O)N(Cc1ccncc1)C2=O 28.2 µM [inhibitor, partial curve, poor fit], N#Cc1cc(Nc2c(N)nc[nH]c2=O)c([N+](=O)[O-])cc1C#N 35.5 µM [inhibitor, partial curve, poor fit], COC(=O)c1cccc(C23CC4(C2)[C@H](CN(Cc2cccnc2)[C@@H]4c2ccccc2)C3c2ccccc2)c1 (stereo partly drawn) 39.8 µM [inhibitor, single point], O=C(CSc1nnc(-c2cccs2)n1CC1CCCO1)c1cc2ccccc2o1 (stereo not drawn) 31.6 µM [inhibitor, single point], O=C(Cn1cncn1)NCc1cc(F)ccc1F 7.94 µM [inhibitor, full curve, poor fit], N#CC1=C(N)N(c2ccc(Br)cc2)C2=C(C(=O)CCC2)C1c1cccnc1 (stereo not drawn) 28.2 µM [inhibitor, partial curve, poor fit], COc1cc(/C=C(\C#N)c2nc3ccccc3s2)cc([N+](=O)[O-])c1O 14.1 µM [inhibitor, full curve, poor fit], O=C(CSc1ncn[nH]1)c1ccc2c(c1)OCCO2 35.5 µM [inhibitor, single point], Cc1cccn2c(=O)cc(COc3ccc(NC(=O)C(C)C)cc3)nc12 89.1 µM [inhibitor, partial curve, poor fit]

Potency, inactive:
Cc1cc[n+](C2CCCCC2)cc1, Cc1cc(Br)ccc1NC(=O)COC(=O)c1ccccc1OCC(N)=O, Cc1ccc(NC(=O)c2cc(N3C(=O)C=CC3=O)ccc2N2CCOCC2)cc1Cl, CC(C)C(=O)NC(=S)/C=C1/N(C)c2ccccc2C1(C)C

Potency, active:
O=C(c1ccc(Br)cc1)C(CN1CCOCC1)c1ccccc1 (stereo not drawn) 20 µM, CCn1c(CSc2nnc(-c3ccncc3)n2C)nc2cc(C(=O)O)ccc21 25.1 µM
